From the supplement of paper PMC4604168 (melanoma cell lines)
This is one part of the list. Repeats are few or missing, and single values can be far off.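 Cells were imaged in 1,536-well plates, and nuclei stained with an antibody against cleaved PARP were counted against all DNA-stained nuclei to give the apoptosis fraction. Screening doses were chosen to leave most cells alive, and resting and induced cleaved-PARP levels differ strongly between cell lines.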

System: WM3526
Experiment: cleaved PARP positive nuclei fraction relative to DMSO control; melanoma cells; higher = more apoptosis
Settings: library dose: low library concentration; 72 h

In order of falling “cleaved PARP positive nuclei fraction” value:
1. OCc1c[nH]c2ccccc12 [Indole-3-carbinol] + C[As](C)SC[C@H](NC(=O)CC[C@H](N)C(=O)O)C(=O)NCC(=O)O [Darinaparsin] (first compound 0.8 µM, partner dose 0.4 µM)  359%
2. C[C@]12O[C@H](C[C@]1(O)CO)n1c3ccccc3c3c4c(c5c6ccccc6n2c5c31)CNC4=O [Lestaurtinib] + C#Cc1cccc(Nc2ncnc3cc(OCCOC)c(OCCOC)cc23)c1 [erlotinib] (first compound 0.004 µM, partner dose 0.8 µM)  251%
3. C[C@]12O[C@H](C[C@]1(O)CO)n1c3ccccc3c3c4c(c5c6ccccc6n2c5c31)CNC4=O [Lestaurtinib] + CC(C)CCN1c2nc(Nc3cc(F)c(O)c(F)c3)ncc2N(C)C(=O)C1C [BID1870] (first compound 0.004 µM, partner dose 0.2 µM)  186%
4. C[C@]12O[C@H](C[C@]1(O)CO)n1c3ccccc3c3c4c(c5c6ccccc6n2c5c31)CNC4=O [Lestaurtinib] + CS(=O)(=O)CCNCc1ccc(-c2ccc3ncnc(Nc4ccc(OCc5cccc(F)c5)c(Cl)c4)c3c2)o1 [lapatinib] (first compound 0.004 µM, partner dose 0.8 µM)  170%
5. Cn1cc(C2=C(c3cn(C4CCN(Cc5ccccn5)CC4)c4ccccc34)C(=O)NC2=O)c2ccccc21 [Enzastaurin] + COc1cc(N2CCC(N3CCN(C)CC3)CC2)ccc1Nc1ncc(Cl)c(Nc2ccccc2S(=O)(=O)C(C)C)n1 [NVP-TAE684] (first compound 0.8 µM, partner dose 0.08 µM)  165%
6. N.N.[Cl][Pt][Cl] [cisplatin] + CC(=O)c1c(C)c2cnc(Nc3ccc(N4CCNCC4)cn3)nc2n(C2CCCC2)c1=O [palbociclib] (first compound 1.6 µM, partner dose 0.04 µM)  145%
7. C[C@]1(c2nc3c(C(N)=O)cccc3[nH]2)CCCN1 [Veliparib] + Cc1cc(SCc2sc(-c3ccc(C(F)(F)F)c(F)c3)nc2C)ccc1OCC(=O)O [GW0742] (first compound 1.4 µM, partner dose 2 µM)  144%
8. CS(=O)(=O)CCNCc1ccc(-c2ccc3ncnc(Nc4ccc(OCc5cccc(F)c5)c(Cl)c4)c3c2)o1 [lapatinib] + C[As](C)SC[C@H](NC(=O)CC[C@H](N)C(=O)O)C(=O)NCC(=O)O [Darinaparsin] (first compound 0.8 µM, partner dose 0.4 µM)  141%
9. COC(=O)c1sccc1S(=O)(=O)Nc1ccc(Nc2ccccc2)cc1OC + C/C(O)=C(\C#N)C(=O)Nc1cc(Br)ccc1Br [LFM-A13] (first compound 1 µM, partner dose 2 µM)  138%
10. Nc1ccn([C@@H]2O[C@H](CO)[C@@H](O)C2(F)F)c(=O)n1 [gemcitabine] + Cc1cc(SCc2sc(-c3ccc(C(F)(F)F)c(F)c3)nc2C)ccc1OCC(=O)O [GW0742] (first compound 0.0004 µM, partner dose 2 µM)  100%
11. C=C(c1ccc(C(=O)O)cc1)c1cc2c(cc1C)C(C)(C)CCC2(C)C [Bexarotene] + O=C(Oc1ccc([N+](=O)[O-])cc1)N1CCC(C(O)(c2ccc3c(c2)OCO3)c2ccc3c(c2)OCO3)CC1 [JZL184] (first compound 2 µM, partner dose 1 µM)  99.6%
12. N#CC[C@H](C1CCCC1)n1cc(-c2ncnc3[nH]ccc23)cn1 [ruxolitinib] + C[C@]12O[C@H](C[C@]1(O)CO)n1c3ccccc3c3c4c(c5c6ccccc6n2c5c31)CNC4=O [Lestaurtinib] (first compound 1 µM, partner dose 0.004 µM)  99.4%
13. Cc1cc(SCc2sc(-c3ccc(C(F)(F)F)c(F)c3)nc2C)ccc1OCC(=O)O + Oc1cc(-c2nc(-c3ccccc3)[nH]c2-c2ccncc2)ccc1Cl [L779450] (first compound 2 µM, partner dose 0.2 µM)  93.5%
14. Cc1cc(Nc2cc(N3CCN(C)CC3)nc(Sc3ccc(NC(=O)C4CC4)cc3)n2)n[nH]1 [Tozasertib] + O=C(Oc1ccc([N+](=O)[O-])cc1)N1CCC(C(O)(c2ccc3c(c2)OCO3)c2ccc3c(c2)OCO3)CC1 [JZL184] (first compound 0.006 µM, partner dose 1 µM)  90.3%
15. CN1CCN(c2ccc3nc(-c4c(N)c5c(F)cccc5[nH]c4=O)[nH]c3c2)CC1 [Dovitinib] + O=C(Oc1ccc([N+](=O)[O-])cc1)N1CCC(C(O)(c2ccc3c(c2)OCO3)c2ccc3c(c2)OCO3)CC1 [JZL184] (first compound 0.1 µM, partner dose 1 µM)  90%
16. COc1ccc(-c2ccc3c(N4CCOCC4)nc(N4C[C@@H](C)O[C@@H](C)C4)nc3n2)cc1CO + O=C(Oc1ccc([N+](=O)[O-])cc1)N1CCC(C(O)(c2ccc3c(c2)OCO3)c2ccc3c(c2)OCO3)CC1 [JZL184] (first compound 0.02 µM, partner dose 1 µM)  87.1%
17. CNC(=O)c1cc(Oc2ccc(NC(=O)Nc3ccc(Cl)c(C(F)(F)F)c3)cc2)ccn1 [sorafenib] + Cc1cc(SCc2sc(-c3ccc(C(F)(F)F)c(F)c3)nc2C)ccc1OCC(=O)O [GW0742] (first compound 0.4 µM, partner dose 2 µM)  85.2%
18. Nc1ncn([C@H]2C[C@H](O)[C@@H](CO)O2)c(=O)n1 [decitabine] + O=C(Oc1ccc([N+](=O)[O-])cc1)N1CCC(C(O)(c2ccc3c(c2)OCO3)c2ccc3c(c2)OCO3)CC1 [JZL184] (first compound 0.1 µM, partner dose 1 µM)  84.4%
19. Cn1nnc2c(C(N)=O)ncn2c1=O [temozolomide] + C/C(O)=C(\C#N)C(=O)Nc1cc(Br)ccc1Br [LFM-A13] (first compound 2 µM, partner dose 2 µM)  79.8%
20. COc1cc(Nc2ncc(F)c(Nc3ccc4c(n3)NC(=O)C(C)(C)O4)n2)cc(OC)c1OC [Tamatinib] + O=C(Oc1ccc([N+](=O)[O-])cc1)N1CCC(C(O)(c2ccc3c(c2)OCO3)c2ccc3c(c2)OCO3)CC1 [JZL184] (first compound 0.4 µM, partner dose 1 µM)  77.6%
21. COc1ccc(C2=N[C@@H](c3ccc(Cl)cc3)[C@@H](c3ccc(Cl)cc3)N2C(=O)N2CCNC(=O)C2)c(OC(C)C)c1 [Nutlin-3] + Cc1cc(SCc2sc(-c3ccc(C(F)(F)F)c(F)c3)nc2C)ccc1OCC(=O)O [GW0742] (first compound 0.1 µM, partner dose 2 µM)  76.6%
22. Cn1cc(C2=C(c3cn(C4CCN(Cc5ccccn5)CC4)c4ccccc34)C(=O)NC2=O)c2ccccc21 [Enzastaurin] + CNC(=O)c1cc(Oc2ccc(NC(=O)Nc3ccc(Cl)c(C(F)(F)F)c3)cc2)ccn1 [sorafenib] (first compound 0.8 µM, partner dose 0.4 µM)  74.4%
23. CCN(CC)CCCCNc1ncc2cc(-c3cc(OC)cc(OC)c3)c(NC(=O)NC(C)(C)C)nc2n1 + O=C(Oc1ccc([N+](=O)[O-])cc1)N1CCC(C(O)(c2ccc3c(c2)OCO3)c2ccc3c(c2)OCO3)CC1 [JZL184] (first compound 0.1 µM, partner dose 1 µM)  69.9%
24. CS(=O)(=O)CCNCc1ccc(-c2ccc3ncnc(Nc4ccc(OCc5cccc(F)c5)c(Cl)c4)c3c2)o1 [lapatinib] + O=C(Oc1ccc([N+](=O)[O-])cc1)N1CCC(C(O)(c2ccc3c(c2)OCO3)c2ccc3c(c2)OCO3)CC1 [JZL184] (first compound 0.8 µM, partner dose 1 µM)  68.5%
25. C[C@@H](Oc1cc(-c2cnn(C3CCNCC3)c2)cnc1N)c1c(Cl)ccc(F)c1Cl [Crizotinib] + Cc1cc(SCc2sc(-c3ccc(C(F)(F)F)c(F)c3)nc2C)ccc1OCC(=O)O [GW0742] (first compound 0.2 µM, partner dose 2 µM)  67%
26. Cn1cnc2c(F)c(Nc3ccc(Br)cc3Cl)c(C(=O)NOCCO)cc21 [selumetinib] + C[C@]12O[C@H](C[C@]1(O)CO)n1c3ccccc3c3c4c(c5c6ccccc6n2c5c31)CNC4=O [Lestaurtinib] (first compound 0.015 µM, partner dose 0.004 µM)  57.9%
27. Cn1cc(C2=C(c3cn(C4CCN(Cc5ccccn5)CC4)c4ccccc34)C(=O)NC2=O)c2ccccc21 [Enzastaurin] + O=C(Nc1cccc(Cl)c1)Nc1ncc(CCNc2ncnc3ccsc23)s1 [SNS314] (first compound 0.8 µM, partner dose 0.0008 µM)  56.9%
28. N.N.[Cl][Pt][Cl] [cisplatin] + O=C(Oc1ccc([N+](=O)[O-])cc1)N1CCC(C(O)(c2ccc3c(c2)OCO3)c2ccc3c(c2)OCO3)CC1 [JZL184] (first compound 1.6 µM, partner dose 1 µM)  54.3%
29. Cn1cc(C2=C(c3cn(C4CCN(Cc5ccccn5)CC4)c4ccccc34)C(=O)NC2=O)c2ccccc21 [Enzastaurin] + COc1ccc(Cl)c(Nc2nc3ccccc3nc2NS(=O)(=O)c2cccc(NC(=O)C(C)(C)N)c2)c1 [XL147] (first compound 0.8 µM, partner dose 0.8 µM)  19.3%
